For 1 molecule, binding results are on record in publication PMC6476931.

These are yes or no findings as the source states them, for the method shown. Binding calls can cover weak binding; strength is not graded here.

In this test the target is GST-vWbp-N (N-terminal half of vWbp) (S. aureus strain Newman). The test can be described thus: ELISA; competition: Fg coated (5 μg/ml); GST-vWbp-N (6 nM), GST-Coa-N (400 nM) or SdrG (50 nM) mixed with increasing concentrations of Fg β-chain (1-25) peptide or scrambled peptide; detected with HRP anti-GST or anti-His; both purified. (In general: ELISA stands for enzyme-linked immunosorbent assay.)

B1: Fg β-chain peptide (1-25) (peptide)
peptide: QGVNDNEEGFFSARGHRPLDKKREE
Regarding B1, the binding entry is listed as “binds”.
